Experimental data as given in patent publication US8007800B2, “Methods for treating bone cancer pain by administering a nerve growth factor antagonist antibody” (Pfizer Inc., priority 2004, dated 2011).

System: athymic nude mice injected with osteoblastic canine carcinoma ACE-1 cells into the femur
Assay: Example 3: murine prostate (ACE-1) model of bone cancer pain, pain behaviors
Type: in vivo, mouse

In the case of `CN1CC[C@]23c4c5ccc(O)c4O[C@H]2[C@@H](O)C=C[C@H]3[C@H]1C5.O=S(=O)(O)O` [morphine sulfate], the “ongoing guarding (time guarding of the injected limb)” value (“ongoing guarding” for short) (acute 10 mg/kg morphine sulfate 15 min prior to testing, day 11) is reported as 3.5 ± 0.3 s, the “ongoing guarding” value (acute 10 mg/kg morphine sulfate 15 min prior to testing, day 19) is reported as 4.0 ± 0.5 s and the “ongoing flinching (number of flinches of the injected limb)” value (“ongoing flinching” for short) (acute 10 mg/kg morphine sulfate, day 11) is reported as 5.6±0.5. For the same molecule, the “ongoing flinching” value (acute 10 mg/kg morphine sulfate, day 19) was 6.8±0.7, the “ongoing guarding” value (acute 30 mg/kg morphine sulfate 15 min prior to testing, day 11) was 2.2 ± 0.3 s and the “ongoing guarding” value (acute 30 mg/kg morphine sulfate 15 min prior to testing, day 19) was 2.0 ± 0.4 s. For the same molecule, the “ongoing flinching” value (acute 30 mg/kg morphine sulfate, day 11) was 3.6±0.5 and the “ongoing flinching” value (acute 30 mg/kg morphine sulfate, day 19) was 3.5±0.7.
